Binding signal data for 54 sequences are collected here from publication PMC7819943, “Rice protein-binding microarrays: a tool to detect cis-acting elements near promoter regions in rice”.

The other results are listed elsewhere or left out.

The assay addresses T1, OsSMF1 (Oryza sativa, UniProt Q6ZLB0 1-436).
T1 sequence: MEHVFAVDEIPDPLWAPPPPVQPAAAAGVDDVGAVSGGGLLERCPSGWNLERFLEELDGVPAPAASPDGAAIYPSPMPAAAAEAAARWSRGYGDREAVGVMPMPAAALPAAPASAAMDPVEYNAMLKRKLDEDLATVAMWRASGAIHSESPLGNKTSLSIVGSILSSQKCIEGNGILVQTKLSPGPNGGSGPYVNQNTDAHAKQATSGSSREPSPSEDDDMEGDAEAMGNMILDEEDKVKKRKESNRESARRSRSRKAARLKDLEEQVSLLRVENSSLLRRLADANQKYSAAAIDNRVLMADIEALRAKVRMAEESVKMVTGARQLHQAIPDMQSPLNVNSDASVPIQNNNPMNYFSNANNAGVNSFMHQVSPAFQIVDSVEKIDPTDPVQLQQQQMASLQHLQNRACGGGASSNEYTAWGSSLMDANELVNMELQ
Description: protein-binding microarray (RPBM); PBS, 2% BSA, 51.3 ng/ul salmon testes DNA, 50 uM zinc acetate, 200 nM TF, 25 C, 1 h; high values mean tight binding. To be noted: protein: recombinant; tags: N-terminal polyhistidine and DsRed monomer fusion (pET32a); chain copies: 2; label: CyDye5-dUTP incorporated in the synthesized complementary strand; 3' TTTTT single-stranded linker to array surface; dsDNA, one strand shown. The procedure, abridged: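 Using Ni–NTA, transcription factors fused N-terminally to polyhistidine and DsRed were purified after expression in E. coli BL21-CodonPlus. These were incubated at 200 nM with a blocked, double-stranded custom Agilent array for 1 h at 25 °C in a buffer containing 50 µM zinc acetate, and the array was washed. The binding signal is per-feature fluorescence intensity (arbitrary units) on an Axon 4000B scanner.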
With “ACCCCATGATCGTTCGCTTCGCTCTGAGCCTCTGACCTGTCGGAGTCACCTAGTGCAG”, the binding signal was 3830 fluorescence intensity (a.u.).
“CACTACATGAACTGCCACCGCGGATGCGGTGATCTCATCTCGGAGTCACCTAGTGCAG”: the binding signal is 4010 fluorescence intensity (a.u.).
The result for “AAACAAGTGCCAAGCAAACGGAGTCATCTTAACCCCTCCCCGGAGTCACCTAGTGCAG” reads 4280 fluorescence intensity (a.u.); that for “CTGCTCCGGCCACGTGGACCCACCATCGGGACGCCACCTCCGGAGTCACCTAGTGCAG”, 14600 fluorescence intensity (a.u.); that for “TTATTCACACTGACAGCAATATATCTTCAGGGTTACAGTGCGGAGTCACCTAGTGCAG”, 3150 fluorescence intensity (a.u.).
The result for “TTCAGAAATACTAGAACGTACCAGGGGCAAACTCCAAAACCGGAGTCACCTAGTGCAG” reads 19500 fluorescence intensity (a.u.).
The result for “GTCGCCGCCAATCATGTCGTCATCGTGTCGCCATCCCATCCGGAGTCACCTAGTGCAG” reads 5730 fluorescence intensity (a.u.); that for “GGACCTGTCTGCAAATTACTCCAGCTCATCGTCTCCGCCGCGGAGTCACCTAGTGCAG”, 5350 fluorescence intensity (a.u.).
On to “GTTGGGACTTGGGATGGGCCGACGTGCTGCAAGCCTGCAACGGAGTCACCTAGTGCAG”, for which the binding signal was 3550 fluorescence intensity (a.u.).
Regarding “CGTCGTCGCCGCCGCCGCCCTCTGCGTCGACGCTGCGGCACGGAGTCACCTAGTGCAG”, the binding signal is 3220 fluorescence intensity (a.u.).
For “TCGCTCTACCCCACCACTTCCTCACACGCGGCCGTCGCCGCGGAGTCACCTAGTGCAG”, the binding signal is 3370 fluorescence intensity (a.u.).
In the case of “TTTCTATTTTACCCTTAATTGTCCTTCTATTCTTACCTATCGGAGTCACCTAGTGCAG”, the binding signal is 3270 fluorescence intensity (a.u.).
Consider “CCCTGTCCTGAAACGCCGTGACGGCTTCTCCTTCTCCCTCCGGAGTCACCTAGTGCAG”, for which the binding signal is 8960 fluorescence intensity (a.u.).
The result for “GACCACACACTTGTTGGCGCCCGCGTGGATCTCTCCATCTCGGAGTCACCTAGTGCAG” reads 3580 fluorescence intensity (a.u.); that for “TGACTGACTCGCGCCACGCATATGGCGGGAGGAGGGAGGTCGGAGTCACCTAGTGCAG”, 3550 fluorescence intensity (a.u.).
Take “AAGGTTTGGCTGAGTTGGGGAAGCGCGTCAGAGTAGCAGACGGAGTCACCTAGTGCAG”: the binding signal is 3700 fluorescence intensity (a.u.).
With “ATAAAGACCTAGTCAATGGAGTGCCACGTAGGCACCACGTCGGAGTCACCTAGTGCAG”, the binding signal was 39000 fluorescence intensity (a.u.).
For the sequence “AGTTTGGTTGAAAATTGGAACGATGTGATTAAAAGTTTGTCGGAGTCACCTAGTGCAG”, the binding signal is 16500 fluorescence intensity (a.u.).
The result for “CTTGGTTTTCTTGATTTCTTGGGTTCTTGGCTACTGGGGCCGGAGTCACCTAGTGCAG” reads 3440 fluorescence intensity (a.u.).
“GAGGTGGATTTGGGGAAAACCCGTCGCCGACGTCAGCGCCCGGAGTCACCTAGTGCAG”: the binding signal was 8800 fluorescence intensity (a.u.).
The result for “CCTTTCTATAGCGTAGACGTCAGTATAGTTCTTGCTTTGGCGGAGTCACCTAGTGCAG” reads 26400 fluorescence intensity (a.u.); that for “AAGGTCAGCTAAAGATTATGTTGTTTGTAGTTTCTAGATGCGGAGTCACCTAGTGCAG”, 3390 fluorescence intensity (a.u.).
The result for “TGCCGATCATTGACGCGTCCTCGTTGGGTTCTGTCCCAGCCGGAGTCACCTAGTGCAG” reads 4610 fluorescence intensity (a.u.); that for “GATGCCTACGTGGAGACATGTTGTGTGGCCAACTGGGGTCCGGAGTCACCTAGTGCAG”, 7920 fluorescence intensity (a.u.).
With “AGGAGATTAGGATTCAGAGATGAGTCGCTTTTGTACTATACGGAGTCACCTAGTGCAG”, the binding signal is 3620 fluorescence intensity (a.u.).
“ACTCGTACTAGTATATGACTCGAGCAGTTCGATCCACCAGCGGAGTCACCTAGTGCAG”: the binding signal was 3980 fluorescence intensity (a.u.).
The result for “TGTTTCTTACTGCCATCTCATCGTCCCCTTTCGCCATGGCCGGAGTCACCTAGTGCAG” reads 4000 fluorescence intensity (a.u.); that for “TAAATGAAAGAAGGGAAATCTCCCGTCTCTTTGTCTCCTGCGGAGTCACCTAGTGCAG”, 3540 fluorescence intensity (a.u.).
The result for “TCGTCGCCTACGTGCCACCCACCAGGGACGTCTCGTGGCTCGGAGTCACCTAGTGCAG” reads 6220 fluorescence intensity (a.u.); that for “TTGGTCTACGTGACGTACACGTGGCATCCCAATTAGCGTTCGGAGTCACCTAGTGCAG”, 26200 fluorescence intensity (a.u.); that for “GAATACAGGATACACGACGATCTCATGGGATACCTGCCCTCGGAGTCACCTAGTGCAG”, 23700 fluorescence intensity (a.u.).
“ACCATCCTAGTCATTGGGTTGGAAATGACCTACTTATTATCGGAGTCACCTAGTGCAG”: the binding signal was 6870 fluorescence intensity (a.u.).
“AGCATCCTACATTTAGGATTAATACATGACTACAGATTTGCGGAGTCACCTAGTGCAG”: the binding signal was 3200 fluorescence intensity (a.u.).
The result for “AGACGGAGGAGGACAAGGACATAGGGGAGGAGGGGCGAGGCGGAGTCACCTAGTGCAG” reads 3270 fluorescence intensity (a.u.); that for “TCTCGCCGCGACGCCACACGACACGACACGCGACGACGCGCGGAGTCACCTAGTGCAG”, 3250 fluorescence intensity (a.u.); that for “TTTTGTGCGCACAACACGTAACACGTATGGCCGGGGTATACGGAGTCACCTAGTGCAG”, 3240 fluorescence intensity (a.u.).
With “CGTGCAGACGTGATCCCTGCACCAAATTAATCCCACCTTACGGAGTCACCTAGTGCAG”, the binding signal is 3850 fluorescence intensity (a.u.).
The result for “CGAATTTCAGCTATTTCTAAATTGTATTTTGATGTGGACTCGGAGTCACCTAGTGCAG” reads 3900 fluorescence intensity (a.u.); that for “CACATGGTCTTTTCACCATTGACACGGCACCCACATCGAACGGAGTCACCTAGTGCAG”, 6470 fluorescence intensity (a.u.); that for “ACCATTGAGTCATTGACCATGCCTAGTTTACAACAACATTCGGAGTCACCTAGTGCAG”, 3800 fluorescence intensity (a.u.).
The result for “CGTCCGTACGTCTGCGTCTGCAGCCTTCCGTTTCGTTTTCCGGAGTCACCTAGTGCAG” reads 3350 fluorescence intensity (a.u.); that for “CGAAGAGATGAGATATATGTTTCCACGTAAGTAGGTCATACGGAGTCACCTAGTGCAG”, 7340 fluorescence intensity (a.u.).
As for “TTGTCCAGGGCCAATATATCCTCCGGCCACGCTCATGCTGCGGAGTCACCTAGTGCAG”, the binding signal is 3430 fluorescence intensity (a.u.).
Turning to “ATGGTTAGCATTAATCACTAATCACGTCATCATTAGTGCTCGGAGTCACCTAGTGCAG”, the binding signal is 4040 fluorescence intensity (a.u.).
For “TATCCCGTACGCGCGCTCGATCATCAGCTTGCATAGTCACCGGAGTCACCTAGTGCAG”, the binding signal was 5620 fluorescence intensity (a.u.).
The result for “TCGTATTGGGCCGTGACTGGGCCATGTGTGCAGCACGTGGCGGAGTCACCTAGTGCAG” reads 4180 fluorescence intensity (a.u.); that for “AATATTATGCAAATAATGTGAGCGTTGATGATTGCATATGCGGAGTCACCTAGTGCAG”, 3720 fluorescence intensity (a.u.); that for “TGCAATCTATATAAATGAACAGTTATGTATATTTCTTGTTCGGAGTCACCTAGTGCAG”, 7650 fluorescence intensity (a.u.).
For “CTCGCCGCTCACCAGCATCGCGTCGGTGGCACGTGGCGGTCGGAGTCACCTAGTGCAG”, the binding signal was 8850 fluorescence intensity (a.u.).
The result for “CCTATATGCGCGCAGCCGTGACGCGATGCGCACCATGTTGCGGAGTCACCTAGTGCAG” reads 7650 fluorescence intensity (a.u.); that for “TTCGCATCGGCGTTGCTTCCAACGAGAGGGAGGGAGGGAGCGGAGTCACCTAGTGCAG”, 28900 fluorescence intensity (a.u.).
The result for “GGAGGAGGAGGAGGGAGAGGGTGGTGTAGTGGGAGCGGCCCGGAGTCACCTAGTGCAG” reads 3460 fluorescence intensity (a.u.); that for “CTTTGCGCCTTCGCGCAGCCGCGTAATCTCGTCTGCCCTCCGGAGTCACCTAGTGCAG”, 3600 fluorescence intensity (a.u.).
Turning to “GCCTGCGTACGTACTTGGCGTCAACCTCAGCAGTCTTGCGCGGAGTCACCTAGTGCAG”, the binding signal was 3530 fluorescence intensity (a.u.).
